AC50 data for 41 compounds are collected here from PubChem BioAssay AID493014 (National Center for Advancing Translational Sciences (NCATS), 2011).

The experiment can be described thus: qHTS Assay to Find Inhibitors of Chronic Active B-Cell Receptor Signaling. Particulars: ABC-DLBCL IkBa-CBG/CBR reporter, luminescence ratio (green luciferase fused to IkBa over red control in TMD8 lymphoma cells), 4 h. The method in brief: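 Doxycycline induced both beetle luciferases in TMD8 lymphoma cells; IKK-driven degradation limits the IkappaBalpha-fused green signal, while red luminescence normalises for cell number and nonspecific effects. Compounds tested up to 46 uM, 4 hrs.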
(In qHTS, concentration-response curves come from the screen itself.)

Setting [1] is: measured here: CBR red luminescence, cell number.
Where [2] appears, read: measured here: IkBa-CBG green luminescence.

As a reminder, the AC50 is the concentration giving half of the maximal activity seen.

This is one part of the list. These are further read-outs of the screen, such as a control signal, another cell line or another target. No call is given for them. The list favours compounds with an active or inconclusive main result. The note in brackets gives the kind of curve behind each potency; many fits are weak.

For `COC(=O)Cc1cc(OC)c(OC)cc1Cc1cc(OC)c(OC)cc1CC(=O)OC`, under setting [1], the AC50 was 4.61 µM [rising, partial curve, poor fit].
Take `O=C(c1ccccc1)N1CCN(CC2CC=CCC2)CC1` (centres undefined): the half-maximal activity concentration (AC50) under setting [1] is 20.6 µM [falling, single point].
Regarding `Cc1nnc(Sc2cc(NCCCO)c([N+](=O)[O-])c3nonc23)s1`, the AC50 runs as follows: under setting [1], 35.5 µM [falling, single point]; under setting [2], 3.98 µM [falling, single point].
In the case of `Cc1ccc(Nc2nc(-c3cccnc3)nc3ccccc23)cc1`, the AC50 under setting [1] was 6.31 µM [falling, full curve].
Turning to `CCOC(=O)C/C(C)=N/NC(=O)C1CC1(c1ccccc1)c1ccccc1` (centres undefined), the concentration at half-maximal activity (AC50) under setting [1] is 29.1 µM [falling, single point].
`Cc1ccc(S(=O)(=O)N(C)/N=C/c2ccc(N(C)C)cc2)cc1`: under setting [1], the AC50 is 10 µM [rising, partial curve, poor fit].
With `CC(C)c1ccc(S(=O)(=O)c2cc3cc(Br)ccc3oc2=O)cc1`, the AC50 under setting [1] was 0.651 µM [falling, full curve].
On the same count and under the same terms, with `Cc1cccc(CCNC(=O)c2c[nH]c3ccc(S(=O)(=O)Nc4ccccc4F)cc3c2=O)c1` the figure was 6.31 µM [falling, partial curve, poor fit]; with `COc1ccnc(N2CCN(c3ccccc3)CC2)c1C#N`, 5.17 µM [rising, full curve, poor fit]; with `O=C(NCCc1ccc(Cl)cc1)c1ccc2c(c1)N(Cc1cccc(Cl)c1)C(=O)c1ccccc1S2(=O)=O`, 14.1 µM [rising, partial curve, poor fit].
On to `Cc1ccc(-c2ccc(/C=N\n3cnnc3)o2)c(Br)c1`, for which, under setting [1], the AC50 is 15.8 µM [rising, single point].
As for `COc1cccc(N(CC(=O)N2CCCC2)S(C)(=O)=O)c1`, the concentration at half-maximal activity (AC50) under setting [1] is 4.47 µM [rising, single point].
On to `Cc1ccc2cccc(OCc3nnc(SCC(=O)O)n3C)c2n1`, for which the concentration at half-maximal activity (AC50) under setting [1] is 31.6 µM [falling, single point].
`CCSCc1nc2ccccn2c1Br`: under setting [1], the AC50 was 1.58 µM [falling, full curve, poor fit].
As to `CCOc1ccccc1/C=C/C(=O)N1CCN(C(=O)c2ccco2)CC1`, the AC50 under setting [1] was 29.1 µM [falling, partial curve, poor fit].
As for `c1ccc(COc2ccccc2CNC2CCCC2)cc1`, the concentration at half-maximal activity (AC50) under setting [1] was 22.4 µM [falling, single point].
Take `COC(=O)c1c(C)[nH]c(C(=O)OC(C)C(=O)N(C)C2CCCCC2)c1C` (centres undefined): the AC50 under setting [2] is 11.6 µM [rising, partial curve, poor fit].
Take `CSCC(O)Cn1ncc2ccccc2c1=O` (centres undefined): the concentration at half-maximal activity (AC50) under setting [1] was 7.94 µM [rising, partial curve, poor fit].
On to `Cc1ccc(S(=O)(=O)N2CCN(C(=O)CN3C(=O)NC4(CCOc5ccccc54)C3=O)CC2)cc1` (centres undefined), for which the AC50 runs as follows: under setting [1], 18.4 µM [rising, partial curve]; under setting [2], 9.2 µM [falling, partial curve, poor fit].
As to `CCOc1cc(/C=N/n2cnnc2)ccc1OCC(=O)Nc1ccccc1OC`, under setting [1], the AC50 is 0.0731 µM [falling, full curve, poor fit].
In the case of `N#C/C(=C/c1ccc(O)c([N+](=O)[O-])c1)C(=O)Nc1ccccc1`, under setting [1], the AC50 was 31.6 µM [falling, single point].
Consider `Cc1cc(C(=O)OCC(=O)Nc2cccnc2Cl)c2ccccc2n1`, for which, under setting [1], the half-maximal activity concentration (AC50) is 25.1 µM [falling, single point].
On the same count and under the same terms, with `COc1cccc(C(=O)Nc2ncc3c(n2)CC(C)(C)CC3=O)c1` the figure was 8.91 µM [falling, partial curve]; with `COCCCNC(=O)Cn1nnc(-c2ccc(NC(=O)c3ccc(F)cc3)cc2)n1`, 0.164 µM [falling, full curve, poor fit].
For the compound `COc1ccccc1/C=C/C(=O)NCCC1=CCCCC1`, the AC50 under setting [1] was 14.1 µM [falling, partial curve].
On to `C=CCSc1nnc(NC(=O)c2cccc(S(=O)(=O)N3CCOCC3)c2)s1`, for which the AC50 under setting [1] is 16.4 µM [falling, partial curve, poor fit].
Consider `CC(C)/C(=N\NC(=O)Nc1ccccc1)c1ccccc1`, for which the AC50 under setting [1] is 10 µM [rising, partial curve].
Regarding `Cn1nccc1-c1cc(Cl)cc(Cl)c1O`, the concentration at half-maximal activity (AC50) under setting [1] was 15.8 µM [rising, single point].
The same measure, in the same setting: with `Cc1ccc(S(=O)(=O)Nc2c(NC3CCCCC3)c3ccccc3oc2=O)cc1C` the figure was 12.6 µM [falling, partial curve, poor fit].
On to `BrC(=C\c1ccccc1)/C=N/Nc1ccc2nncn2n1`, for which the AC50 under setting [1] was 3.98 µM [rising, partial curve, poor fit].
The same measure, in the same setting: with `COc1ccc(Nc2nc3ccccc3nc2-n2nc(C)cc2C)cc1` the figure was 29.1 µM [rising, single point].
Regarding `O=C(CSc1ccc2nnc(-c3cccc(F)c3)n2n1)NCC1CCCO1` (centres undefined), the concentration at half-maximal activity (AC50) under setting [1] was 5.62 µM [rising, full curve, poor fit].
For the compound `O=C(CCNC(=O)c1ccccc1Cl)Nc1cc(S(=O)(=O)N2CCOCC2)ccc1N1CCOCC1`, the AC50 under setting [1] is 15.8 µM [falling, single point].
Regarding `CN(C)CCNC(=O)c1cc2c(s1)-c1ccccc1OC2`, under setting [1], the half-maximal activity concentration (AC50) is 8.2 µM [falling, partial curve, poor fit].
For the compound `O=C(N/N=C/c1ccc(Cl)cc1Cl)C(=O)NC1CC1`, the AC50 under setting [1] is 3.98 µM [rising, full curve].
With `CN(C)c1nc(=NCc2ccco2)ss1`, the AC50 by setting is: under setting [1], 0.708 µM [falling, full curve, poor fit]; under setting [2], 1 µM [falling, full curve].
Turning to `Cc1cccc(NC(=O)c2cc(-c3ccc(C)c(C)c3O)n[nH]2)c1`, the concentration at half-maximal activity (AC50) under setting [1] was 12.6 µM [falling, partial curve].
Same read-out and setting: with `O=S(=O)(Nc1ccc(-c2nc3cccnc3s2)cc1)c1ccc(Cl)s1` the figure was 29.1 µM [falling, single point]; with `O=C(/C=C1\SC(=O)NC1=O)Nc1ccc(C(=O)O)cc1`, 7.94 µM [falling, full curve, poor fit]; with `CC(=O)Nc1cc2nc(C)n(Cc3ccccc3)c2nc1C`, 15.8 µM [rising, partial curve, poor fit].
Consider `CCC(=O)Nc1cccc(NC(=S)NC(=O)c2ccccc2C)c1`, for which the AC50 under setting [1] is 4.47 µM [falling, partial curve].
